Test results reported in patent US4737487A (Beecham Group p.l.c., priority 1984, dated 1988).
[ ]: non-standard residue; d: D form. The star is where a group is joined. Nle = CCCC[C@H](N)C(=O)O; Cbz = O=C(OCc1ccccc1)*; Boc = CC(C)(C)OC(=O)*

Assay: general procedure: solution-phase peptide synthesis; DCC/HOBT; azide fragment coupling (t-butyl nitrite); ONP active ester
Conditions: acetate salt

Substance Boc-AVK(Cbz)K(Cbz)-NH2 has a step yield (late stage modification step) of 98%.
Substance BOC-Arg(H^+)-Lys-(CBZ)-Gln-Nle-OMe has a step yield (coupling step) of 56%.
Work on Boc-AVK(Cbz)K(Cbz)-OMe yielded a step yield (coupling step) of 84%.
BOC-Arg(H^+)-Lys-(CBZ)-Gln-Nle-NHNH2 showed a step yield (late stage modification step) of 92%.
Boc-K(Cbz)Q[Nle]AVK(Cbz)-NH2 showed a step yield (coupling step) of 85%.
